According to article PMC12095603:
These are yes or no findings as the source states them, for the method shown. In cells and extracts the contact can be indirect. A yes stands for co-enrichment or nearness to the bait. Other partners may have been found.

Protein sequences, listed by entry. Tags and fused reporters are not part of them.
UniProt P51449: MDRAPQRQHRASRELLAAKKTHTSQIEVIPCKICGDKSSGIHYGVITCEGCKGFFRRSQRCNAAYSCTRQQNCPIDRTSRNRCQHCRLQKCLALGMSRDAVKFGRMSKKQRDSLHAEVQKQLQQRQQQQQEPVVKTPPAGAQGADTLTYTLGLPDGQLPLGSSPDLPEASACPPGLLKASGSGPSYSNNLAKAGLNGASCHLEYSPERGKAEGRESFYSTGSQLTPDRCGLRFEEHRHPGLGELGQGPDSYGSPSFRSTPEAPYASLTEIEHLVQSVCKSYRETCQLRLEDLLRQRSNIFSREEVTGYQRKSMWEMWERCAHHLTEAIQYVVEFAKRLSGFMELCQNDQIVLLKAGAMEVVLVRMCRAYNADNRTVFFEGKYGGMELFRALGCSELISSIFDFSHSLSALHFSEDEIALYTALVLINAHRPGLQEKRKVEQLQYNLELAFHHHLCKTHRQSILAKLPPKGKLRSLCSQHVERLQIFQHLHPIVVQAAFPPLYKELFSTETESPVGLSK
UniProt Q92793: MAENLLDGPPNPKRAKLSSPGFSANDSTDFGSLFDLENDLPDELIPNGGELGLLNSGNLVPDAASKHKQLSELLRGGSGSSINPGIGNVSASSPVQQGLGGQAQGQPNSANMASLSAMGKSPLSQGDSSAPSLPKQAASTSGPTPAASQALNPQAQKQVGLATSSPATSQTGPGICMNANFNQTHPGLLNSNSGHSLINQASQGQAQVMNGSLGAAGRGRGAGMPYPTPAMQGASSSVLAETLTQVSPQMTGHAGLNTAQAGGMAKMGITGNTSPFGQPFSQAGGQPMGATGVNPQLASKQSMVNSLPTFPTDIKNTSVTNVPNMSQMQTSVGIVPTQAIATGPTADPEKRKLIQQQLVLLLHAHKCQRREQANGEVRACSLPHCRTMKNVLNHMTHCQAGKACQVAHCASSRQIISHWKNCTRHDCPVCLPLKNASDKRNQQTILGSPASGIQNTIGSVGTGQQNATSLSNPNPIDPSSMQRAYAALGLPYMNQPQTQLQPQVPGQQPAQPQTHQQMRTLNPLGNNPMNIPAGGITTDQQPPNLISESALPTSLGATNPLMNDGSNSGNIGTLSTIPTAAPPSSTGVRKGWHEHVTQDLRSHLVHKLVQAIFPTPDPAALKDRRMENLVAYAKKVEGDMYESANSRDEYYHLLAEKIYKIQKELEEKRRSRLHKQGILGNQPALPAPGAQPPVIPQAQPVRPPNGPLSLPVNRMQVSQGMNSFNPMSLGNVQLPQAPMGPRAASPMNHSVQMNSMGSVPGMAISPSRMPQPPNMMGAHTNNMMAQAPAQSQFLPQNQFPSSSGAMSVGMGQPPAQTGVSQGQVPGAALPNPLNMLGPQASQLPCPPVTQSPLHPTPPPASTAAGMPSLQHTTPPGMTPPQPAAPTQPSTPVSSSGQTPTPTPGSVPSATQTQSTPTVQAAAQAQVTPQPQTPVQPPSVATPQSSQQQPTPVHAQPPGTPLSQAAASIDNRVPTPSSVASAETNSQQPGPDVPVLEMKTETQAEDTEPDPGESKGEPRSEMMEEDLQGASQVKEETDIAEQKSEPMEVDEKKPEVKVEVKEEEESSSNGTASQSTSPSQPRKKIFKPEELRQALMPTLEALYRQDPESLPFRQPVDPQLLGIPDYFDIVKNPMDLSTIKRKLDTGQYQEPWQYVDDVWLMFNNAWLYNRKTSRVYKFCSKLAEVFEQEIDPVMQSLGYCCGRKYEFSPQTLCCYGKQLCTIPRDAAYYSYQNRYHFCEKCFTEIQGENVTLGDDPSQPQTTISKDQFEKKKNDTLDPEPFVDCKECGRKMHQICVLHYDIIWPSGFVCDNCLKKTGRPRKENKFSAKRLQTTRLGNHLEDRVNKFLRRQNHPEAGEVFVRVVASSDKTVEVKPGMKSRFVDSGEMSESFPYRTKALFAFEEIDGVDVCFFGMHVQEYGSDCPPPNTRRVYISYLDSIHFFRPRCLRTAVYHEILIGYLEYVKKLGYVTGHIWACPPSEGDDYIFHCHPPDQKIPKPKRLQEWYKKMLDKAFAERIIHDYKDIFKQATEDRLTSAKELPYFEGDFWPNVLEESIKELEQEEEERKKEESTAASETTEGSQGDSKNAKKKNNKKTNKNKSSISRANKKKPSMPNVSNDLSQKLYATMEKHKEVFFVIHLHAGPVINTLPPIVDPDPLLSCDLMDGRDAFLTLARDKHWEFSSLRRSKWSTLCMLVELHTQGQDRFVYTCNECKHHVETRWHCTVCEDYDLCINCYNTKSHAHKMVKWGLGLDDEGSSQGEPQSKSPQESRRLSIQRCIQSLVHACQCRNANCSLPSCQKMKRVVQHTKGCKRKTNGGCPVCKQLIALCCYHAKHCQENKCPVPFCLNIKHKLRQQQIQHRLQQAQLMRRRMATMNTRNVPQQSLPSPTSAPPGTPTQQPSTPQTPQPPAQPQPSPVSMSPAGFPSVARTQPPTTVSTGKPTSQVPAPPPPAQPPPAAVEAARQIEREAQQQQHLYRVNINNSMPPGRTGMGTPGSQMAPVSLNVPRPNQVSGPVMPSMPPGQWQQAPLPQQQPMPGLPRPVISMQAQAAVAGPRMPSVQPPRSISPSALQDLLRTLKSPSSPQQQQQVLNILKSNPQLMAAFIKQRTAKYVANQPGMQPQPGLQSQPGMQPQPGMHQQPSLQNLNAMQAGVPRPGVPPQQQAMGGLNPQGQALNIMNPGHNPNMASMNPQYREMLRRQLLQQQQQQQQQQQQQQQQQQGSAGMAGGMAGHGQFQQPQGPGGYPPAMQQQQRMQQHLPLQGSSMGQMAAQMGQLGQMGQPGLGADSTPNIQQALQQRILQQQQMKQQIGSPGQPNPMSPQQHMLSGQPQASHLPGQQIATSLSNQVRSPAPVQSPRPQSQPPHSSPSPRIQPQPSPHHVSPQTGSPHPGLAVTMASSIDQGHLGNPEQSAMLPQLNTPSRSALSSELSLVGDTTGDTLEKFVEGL
UniProt Q13547: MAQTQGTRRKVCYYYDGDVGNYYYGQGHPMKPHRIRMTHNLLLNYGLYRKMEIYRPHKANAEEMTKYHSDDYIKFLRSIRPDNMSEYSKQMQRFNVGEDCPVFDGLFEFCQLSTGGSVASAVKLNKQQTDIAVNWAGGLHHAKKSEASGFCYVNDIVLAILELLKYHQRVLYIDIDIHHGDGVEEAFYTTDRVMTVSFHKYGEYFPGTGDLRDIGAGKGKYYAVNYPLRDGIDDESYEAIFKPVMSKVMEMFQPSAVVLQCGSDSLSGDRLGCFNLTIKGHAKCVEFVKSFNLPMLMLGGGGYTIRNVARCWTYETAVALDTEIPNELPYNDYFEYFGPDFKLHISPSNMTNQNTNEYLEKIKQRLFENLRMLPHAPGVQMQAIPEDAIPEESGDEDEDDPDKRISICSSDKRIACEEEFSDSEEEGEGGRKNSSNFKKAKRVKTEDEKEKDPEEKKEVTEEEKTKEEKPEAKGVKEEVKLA
UniProt Q09472: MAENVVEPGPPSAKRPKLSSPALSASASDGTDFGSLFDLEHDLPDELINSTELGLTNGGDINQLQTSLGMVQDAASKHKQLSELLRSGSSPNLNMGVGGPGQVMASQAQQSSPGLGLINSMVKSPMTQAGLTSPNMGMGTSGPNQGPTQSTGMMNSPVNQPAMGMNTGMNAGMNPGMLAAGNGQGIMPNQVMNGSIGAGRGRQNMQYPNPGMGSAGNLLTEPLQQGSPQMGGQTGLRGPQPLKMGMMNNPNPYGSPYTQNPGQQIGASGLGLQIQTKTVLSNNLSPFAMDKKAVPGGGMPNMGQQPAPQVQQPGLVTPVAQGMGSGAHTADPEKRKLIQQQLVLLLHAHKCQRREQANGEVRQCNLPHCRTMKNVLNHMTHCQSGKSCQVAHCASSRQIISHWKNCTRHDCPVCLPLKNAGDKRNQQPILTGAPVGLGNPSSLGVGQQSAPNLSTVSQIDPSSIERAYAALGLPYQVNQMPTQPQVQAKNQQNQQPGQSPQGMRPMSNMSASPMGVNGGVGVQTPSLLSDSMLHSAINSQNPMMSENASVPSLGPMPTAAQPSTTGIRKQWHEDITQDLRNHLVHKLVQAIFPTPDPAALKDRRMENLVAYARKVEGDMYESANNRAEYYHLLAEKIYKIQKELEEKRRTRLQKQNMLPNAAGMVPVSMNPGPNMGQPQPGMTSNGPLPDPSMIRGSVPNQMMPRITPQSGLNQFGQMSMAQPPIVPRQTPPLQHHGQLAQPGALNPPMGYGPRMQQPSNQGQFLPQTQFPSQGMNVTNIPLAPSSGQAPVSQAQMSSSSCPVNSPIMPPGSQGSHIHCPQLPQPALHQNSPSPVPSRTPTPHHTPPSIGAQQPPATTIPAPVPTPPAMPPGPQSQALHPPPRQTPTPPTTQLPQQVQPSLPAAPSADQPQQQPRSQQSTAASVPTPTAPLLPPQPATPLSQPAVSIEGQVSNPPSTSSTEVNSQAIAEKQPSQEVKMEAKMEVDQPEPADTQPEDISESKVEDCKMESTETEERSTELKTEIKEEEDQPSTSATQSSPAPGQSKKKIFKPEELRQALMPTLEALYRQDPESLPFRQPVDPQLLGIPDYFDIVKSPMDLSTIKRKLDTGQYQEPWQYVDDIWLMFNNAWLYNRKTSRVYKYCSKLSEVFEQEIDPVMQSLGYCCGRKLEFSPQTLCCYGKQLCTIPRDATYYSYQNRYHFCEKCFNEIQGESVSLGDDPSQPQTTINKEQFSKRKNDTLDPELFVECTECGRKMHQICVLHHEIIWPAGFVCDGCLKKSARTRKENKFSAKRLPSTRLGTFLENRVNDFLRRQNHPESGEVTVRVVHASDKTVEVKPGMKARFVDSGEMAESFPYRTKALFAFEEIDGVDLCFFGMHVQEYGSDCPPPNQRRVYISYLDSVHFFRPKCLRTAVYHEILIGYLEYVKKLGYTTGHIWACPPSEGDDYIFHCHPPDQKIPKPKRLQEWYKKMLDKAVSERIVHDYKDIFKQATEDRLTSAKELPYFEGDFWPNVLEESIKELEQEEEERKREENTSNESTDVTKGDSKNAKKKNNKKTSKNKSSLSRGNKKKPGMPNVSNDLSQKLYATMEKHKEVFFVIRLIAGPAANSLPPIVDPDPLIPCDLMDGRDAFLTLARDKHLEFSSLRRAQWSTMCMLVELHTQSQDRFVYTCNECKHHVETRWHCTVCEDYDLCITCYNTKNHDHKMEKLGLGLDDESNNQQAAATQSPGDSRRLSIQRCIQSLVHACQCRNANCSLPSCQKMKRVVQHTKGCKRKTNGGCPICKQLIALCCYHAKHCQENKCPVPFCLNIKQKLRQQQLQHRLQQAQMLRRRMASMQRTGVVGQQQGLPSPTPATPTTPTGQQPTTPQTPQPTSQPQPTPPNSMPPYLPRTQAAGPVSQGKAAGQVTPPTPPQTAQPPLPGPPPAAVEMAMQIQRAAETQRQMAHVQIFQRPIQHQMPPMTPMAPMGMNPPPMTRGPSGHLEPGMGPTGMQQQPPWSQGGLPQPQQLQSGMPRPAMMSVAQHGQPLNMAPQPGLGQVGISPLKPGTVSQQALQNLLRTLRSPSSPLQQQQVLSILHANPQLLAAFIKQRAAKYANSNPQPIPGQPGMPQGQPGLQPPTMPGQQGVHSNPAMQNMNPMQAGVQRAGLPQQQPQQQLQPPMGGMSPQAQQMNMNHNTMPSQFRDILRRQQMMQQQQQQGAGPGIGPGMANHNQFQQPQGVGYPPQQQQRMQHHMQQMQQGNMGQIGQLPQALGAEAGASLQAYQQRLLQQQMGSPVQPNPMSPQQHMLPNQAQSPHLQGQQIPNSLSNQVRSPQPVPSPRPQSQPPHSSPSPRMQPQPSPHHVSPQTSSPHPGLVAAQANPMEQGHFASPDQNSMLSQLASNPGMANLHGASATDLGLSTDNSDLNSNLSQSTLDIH

Each substance was assayed against RORC (bait of the mass spectrometry of RORC-bound proteins) (UniProt P51449) (assay: affinity purification with mass spectrometry; mass spectrometry of proteins bound to RORC in NK-92 cells).

binding | Substance
binds | CBP (found by mass spectrometry with RORC in NK-92 cells) (from UniProt Q92793 1-2442) (enzyme)
binds | HDAC1 (found by mass spectrometry with RORC in NK-92 cells) (from UniProt Q13547 1-482) (enzyme)
binds | p300 (found by mass spectrometry with RORC in NK-92 cells) (from UniProt Q09472 1-2414) (enzyme)
